Data as given in PubChem BioAssay AID1224830 (NIAID, 2016)

Test: 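Host factors that control LPS-induced TNF expression in human macrophages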 (primary screen)
System: human THP-1 monocytic leukaemia cells, TNF dual-luciferase reporter clone, PMA-differentiated to macrophage-like cells
Reagents: siRNA pool against human genes, 50 nM
Duration: LPS for 4 h, given about 3 days after siRNA transfection
Conditions: bacterial LPS (TLR4 ligand), 10 ng/ml
Measured: 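TNF firefly reporter luminescence divided by renilla, normalised to the plate median, then turned into a robust z-score for each replicate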
Direction: TNF reporter robust z-score: higher = stronger TNF reporter response to LPS
Rule for the call: 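a well is active when its z-score exceeds 2.8 or falls below -1.5; control wells carry no call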
This is a random part of about 18,000 reagents tested. About 2,900 of them (16%) count as active. 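Calls are made per well; low scores hint the gene aids the LPS response, high scores that it dampens it.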 Repeated entries: four replicate wells of each siRNA pool.

gene | TNF reporter robust z-score | Outcome
WASF1 (WASP family member 1) | 2.48 | inactive
WASF1 (WASP family member 1) | 1.98 | inactive
WASF1 (WASP family member 1) | 3.14 | active
WASF1 (WASP family member 1) | 1.3 | inactive
UTP14A (UTP14A small subunit processome component) | -0.27 | inactive
UTP14A (UTP14A small subunit processome component) | -0.67 | inactive
UTP14A (UTP14A small subunit processome component) | -1.22 | inactive
UTP14A (UTP14A small subunit processome component) | 1.51 | inactive
LRRC32 (leucine rich repeat containing 32) | 1.18 | inactive
LRRC32 (leucine rich repeat containing 32) | 2.13 | inactive
LRRC32 (leucine rich repeat containing 32) | -0.73 | inactive
LRRC32 (leucine rich repeat containing 32) | -0.21 | inactive
FGF14 (fibroblast growth factor 14) | -0.42 | inactive
FGF14 (fibroblast growth factor 14) | 0.14 | inactive
FGF14 (fibroblast growth factor 14) | -0.37 | inactive
FGF14 (fibroblast growth factor 14) | -0.1 | inactive
KNDC1 (kinase non-catalytic C-lobe domain containing 1) | 0.93 | inactive
KNDC1 (kinase non-catalytic C-lobe domain containing 1) | 1.89 | inactive
KNDC1 (kinase non-catalytic C-lobe domain containing 1) | -0.43 | inactive
KNDC1 (kinase non-catalytic C-lobe domain containing 1) | 0.88 | inactive
DCAF16 (DDB1 and CUL4 associated factor 16) | -0.98 | inactive
DCAF16 (DDB1 and CUL4 associated factor 16) | -0.63 | inactive
DCAF16 (DDB1 and CUL4 associated factor 16) | -1.66 | active
DCAF16 (DDB1 and CUL4 associated factor 16) | -1.52 | active
EEF1B2 (eukaryotic translation elongation factor 1 beta 2) | 0.21 | inactive
EEF1B2 (eukaryotic translation elongation factor 1 beta 2) | -0.13 | inactive
EEF1B2 (eukaryotic translation elongation factor 1 beta 2) | 0.38 | inactive
EEF1B2 (eukaryotic translation elongation factor 1 beta 2) | 0.56 | inactive
SLC41A1 | 2.2 | inactive
SLC41A1 | 2.57 | inactive
SLC41A1 | 1.55 | inactive
SLC41A1 | 2.37 | inactive
PRRC2A (proline rich coiled-coil 2A) | -0.49 | inactive
PRRC2A (proline rich coiled-coil 2A) | -0.06 | inactive
PRRC2A (proline rich coiled-coil 2A) | 0.69 | inactive
PRRC2A (proline rich coiled-coil 2A) | 1.17 | inactive
NADSYN1 (NAD synthetase 1) | -0.67 | inactive
NADSYN1 (NAD synthetase 1) | -0.37 | inactive
NADSYN1 (NAD synthetase 1) | -0.04 | inactive
NADSYN1 (NAD synthetase 1) | -0.19 | inactive
MAP3K20 (mitogen-activated protein kinase kinase kinase 20) | -0.46 | inactive
MAP3K20 (mitogen-activated protein kinase kinase kinase 20) | 2.12 | inactive
MAP3K20 (mitogen-activated protein kinase kinase kinase 20) | 0.41 | inactive
MAP3K20 (mitogen-activated protein kinase kinase kinase 20) | 0.01 | inactive
CLEC2L (C-type lectin domain family 2 member L) | 0.73 | inactive
CLEC2L (C-type lectin domain family 2 member L) | 1.42 | inactive
CLEC2L (C-type lectin domain family 2 member L) | 1.07 | inactive
DYNC2H1 (dynein cytoplasmic 2 heavy chain 1) | -1.12 | inactive
DYNC2H1 (dynein cytoplasmic 2 heavy chain 1) | 0.33 | inactive
DYNC2H1 (dynein cytoplasmic 2 heavy chain 1) | -0.37 | inactive
DYNC2H1 (dynein cytoplasmic 2 heavy chain 1) | -0.73 | inactive
PADI3 (peptidyl arginine deiminase 3) | -1.27 | inactive
PADI3 (peptidyl arginine deiminase 3) | 0.16 | inactive
PADI3 (peptidyl arginine deiminase 3) | -0.01 | inactive
PADI3 (peptidyl arginine deiminase 3) | -0.11 | inactive
SLC23A3 | -0.91 | inactive
SLC23A3 | -0.61 | inactive
SLC23A3 | -0.32 | inactive
SLC23A3 | 0.41 | inactive
LOXL1 (lysyl oxidase like 1) | -0.8 | inactive
LOXL1 (lysyl oxidase like 1) | -0.68 | inactive
LOXL1 (lysyl oxidase like 1) | -0.91 | inactive
LOXL1 (lysyl oxidase like 1) | 0.52 | inactive
EPYC (epiphycan) | 5.69 | active
EPYC (epiphycan) | 0.56 | inactive
EPYC (epiphycan) | -0.03 | inactive
EPYC (epiphycan) | 0.74 | inactive
PHF20 (PHD finger protein 20) | -1.44 | inactive
PHF20 (PHD finger protein 20) | 0.02 | inactive
PHF20 (PHD finger protein 20) | -2.32 | active
PHF20 (PHD finger protein 20) | 0.18 | inactive
GPATCH2 (G-patch domain containing 2) | -0.88 | inactive
GPATCH2 (G-patch domain containing 2) | -0.24 | inactive
GPATCH2 (G-patch domain containing 2) | -0.44 | inactive
GPATCH2 (G-patch domain containing 2) | -0.38 | inactive
MDGA1 (MAM domain containing glycosylphosphatidylinositol anchor 1) | -0.84 | inactive
MDGA1 (MAM domain containing glycosylphosphatidylinositol anchor 1) | 0.3 | inactive
MDGA1 (MAM domain containing glycosylphosphatidylinositol anchor 1) | -0.01 | inactive
MDGA1 (MAM domain containing glycosylphosphatidylinositol anchor 1) | 0.55 | inactive
ZFP41 (ZFP41 zinc finger protein) | 1.24 | inactive
ZFP41 (ZFP41 zinc finger protein) | 1.01 | inactive
ZFP41 (ZFP41 zinc finger protein) | 0.75 | inactive
ZFP41 (ZFP41 zinc finger protein) | 0.07 | inactive
MRPL30 (mitochondrial ribosomal protein L30) | -0.63 | inactive
MRPL30 (mitochondrial ribosomal protein L30) | -0.85 | inactive
MRPL30 (mitochondrial ribosomal protein L30) | -0.82 | inactive
MRPL30 (mitochondrial ribosomal protein L30) | -0.62 | inactive
OR6T1 (olfactory receptor family 6 subfamily T member 1) | -0.47 | inactive
OR6T1 (olfactory receptor family 6 subfamily T member 1) | -0.55 | inactive
OR6T1 (olfactory receptor family 6 subfamily T member 1) | -0.53 | inactive
OR6T1 (olfactory receptor family 6 subfamily T member 1) | 0.1 | inactive
GNMT (glycine N-methyltransferase) | -0.82 | inactive
GNMT (glycine N-methyltransferase) | -0.14 | inactive
GNMT (glycine N-methyltransferase) | -0.71 | inactive
GNMT (glycine N-methyltransferase) | -0.26 | inactive
CTSL3P (cathepsin L family member 3, pseudogene) | -0.98 | inactive
CTSL3P (cathepsin L family member 3, pseudogene) | 0.08 | inactive
CTSL3P (cathepsin L family member 3, pseudogene) | -0.1 | inactive
CTSL3P (cathepsin L family member 3, pseudogene) | 0.49 | inactive
MANF (mesencephalic astrocyte derived neurotrophic factor) | 2.56 | inactive
MANF (mesencephalic astrocyte derived neurotrophic factor) | 2.7 | inactive
MANF (mesencephalic astrocyte derived neurotrophic factor) | 1.56 | inactive
MANF (mesencephalic astrocyte derived neurotrophic factor) | 2.78 | inactive
ITGB3 (integrin subunit beta 3) | -1.8 | active
ITGB3 (integrin subunit beta 3) | -1.55 | active
ITGB3 (integrin subunit beta 3) | -1.68 | active
ITGB3 (integrin subunit beta 3) | -1.51 | active
ATP6V1E1 (ATPase H+ transporting V1 subunit E1) | 0.68 | inactive
ATP6V1E1 (ATPase H+ transporting V1 subunit E1) | 1.6 | inactive
ATP6V1E1 (ATPase H+ transporting V1 subunit E1) | 1.64 | inactive
ATP6V1E1 (ATPase H+ transporting V1 subunit E1) | 0.39 | inactive

12 entries already listed, sorted by “TNF reporter robust z-score”, lowest first:
gene | TNF reporter robust z-score | Outcome
PHF20 (PHD finger protein 20) | -2.32 | active
PHF20 (PHD finger protein 20) | -1.44 | inactive
LOXL1 (lysyl oxidase like 1) | -0.91 | inactive
LOXL1 (lysyl oxidase like 1) | -0.8 | inactive
LOXL1 (lysyl oxidase like 1) | -0.68 | inactive
EPYC (epiphycan) | -0.03 | inactive
PHF20 (PHD finger protein 20) | 0.02 | inactive
PHF20 (PHD finger protein 20) | 0.18 | inactive
LOXL1 (lysyl oxidase like 1) | 0.52 | inactive
EPYC (epiphycan) | 0.56 | inactive
EPYC (epiphycan) | 0.74 | inactive
EPYC (epiphycan) | 5.69 | active
